The exact form of at least one protein or probe is not confirmed. No signal at the amounts used counts as a negative.

The data set concerns EarI. Briefly: enzyme reaction in vitro. The conditions noted are these: NEBuffer 4, 35 C; purified recombinant protein; protein details: New England Biolabs; label: JOE, BHQ; single-stranded DNA.

CTCTTCCTCAGCAGTTCATC [RE1F1(20)-JB]: the “activity on this sequence” value is recorded as “not active”.
